Test results as given in patent US20130344073A1.
No constants are given. Whether binding was seen depends on the method and setting. Some results given as binding are weak or reduced against the parent protein; the word gives no strength.

Chains of the proteins cited; added tags and fusions are not shown. Lines headed by an entry give the natural chain unless they say otherwise; changes in a name come on top.
UniProt P48740: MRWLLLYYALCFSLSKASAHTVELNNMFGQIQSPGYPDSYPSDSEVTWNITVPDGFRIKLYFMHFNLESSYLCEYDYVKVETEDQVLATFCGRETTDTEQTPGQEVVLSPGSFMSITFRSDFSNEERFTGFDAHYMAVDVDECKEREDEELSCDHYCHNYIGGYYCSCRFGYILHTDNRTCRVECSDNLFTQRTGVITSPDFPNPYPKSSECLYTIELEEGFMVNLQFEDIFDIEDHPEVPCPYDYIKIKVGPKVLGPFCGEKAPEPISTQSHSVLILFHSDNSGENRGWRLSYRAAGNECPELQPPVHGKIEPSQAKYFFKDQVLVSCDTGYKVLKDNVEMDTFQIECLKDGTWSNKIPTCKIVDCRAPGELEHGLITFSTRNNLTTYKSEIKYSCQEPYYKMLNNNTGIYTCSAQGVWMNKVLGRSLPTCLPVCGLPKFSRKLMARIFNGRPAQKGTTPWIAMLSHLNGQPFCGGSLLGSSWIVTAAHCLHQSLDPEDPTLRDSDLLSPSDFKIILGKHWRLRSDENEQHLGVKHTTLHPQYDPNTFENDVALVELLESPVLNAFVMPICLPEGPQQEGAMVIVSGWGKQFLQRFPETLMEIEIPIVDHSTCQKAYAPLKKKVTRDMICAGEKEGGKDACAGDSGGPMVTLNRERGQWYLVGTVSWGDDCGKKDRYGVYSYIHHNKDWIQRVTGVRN

How the values were obtained:
human MASP-3 (human) [1] = assay: FACS histogram of DTLacO cells displaying clone M3M1, stained with labeled MASP-3 antigen, against an IgG1-stained negative control
human MASP-3 (human) [2] = assay: FACS, DTLacO cells displaying the antibody stained with MASP-3 antigen
human MASP-3 (human) [3] = assay: DTLacO screens with CCP1-CCP2-SP fragments
human MASP-1 (human) = human MASP-1 (human) (UniProt P48740); assay: DTLacO screens with CCP1-CCP2-SP fragments
human MASP-3 (human) [4] = assay: FACS histogram of DTLacO cells displaying clone M3J5, stained with labeled MASP-3 antigen, against an IgG1-stained negative control
human MASP-3 (human) [5] = assay: Saturation binding by flow cytometry: DTLacO cells expressing the antibody, stained with various concentrations of fluorescent-labeled soluble MASP-3 antigen

binding (human MASP-3 (human) [1])	binding (human MASP-3 (human) [2])	binding (human MASP-3 (human) [3])	binding (human MASP-1 (human))	binding (human MASP-3 (human) [4])	binding (human MASP-3 (human) [5])	Binder
binds	binds					MASP-3 specific clone M3M1 (antibody, V domains shown) VH: AVTLDESGGGLQTPGGGLSLVCKASGFDFSSYQMNWIRQAPGKGLEFVAAINRFGNSTGHGAAVKGRVTISRDDGQSTVRLQLSNLRAEDTATYYCAKGVYGYCGSYSCCGVDTIDAWGHGTEVIVSS VL: ALTQPASVSANPGETVKITCSGGGSYAGSYYYGWYQQKAPGSAPVTLIYYNNKRPSDIPSRFSGSLSGSTNTLTITGVRADDEAVYFCGSADNSGAAFGAGTTLTVL
		binds	binds			clone 1E10 (antibody, human IgG1, V domains shown) VH: AVTLDESGGGLQTPGGALSLVCKASGFTFSSYDMVWVRQAPGKGLEFVAGISRNDGRYTEYGSAVKGRATISRDNGQSTVRLQLNNLRAEDTATYYCARDAGGSAYWFDAGQIDAWGHGTEVIVSS VL: ALTQPASVSANPGETVKITCSGGGSYAGSYYYGWYQQKAPGSAPVTLIYYNNKRPSDIPSRFSGSLSGSTNTLTITGVRADDEAVYFCGSADNSGAAFGAGTTLTVL
		binds	binds			clone D14 (antibody, human IgG1, V domains shown) VH: AVTLDESGGGLQTPGGALSLVCKASGFTFSSYAMHWVRQAPGKGLEWVAGIYKSGAGTNYAPAVKGRATISRDNGQSTVRLQLNNLRAEDTGTYYCAKTTGSGCSSGYRAEYIDAWGHGTEVIVSS VL: ALTQPASVSANPGETVKITCSGGGSYAGSYYYGWYQQKAPGSAPVTLIYYNNKRPSDIPSRFSGSLSGSTNTLTITGVRADDEAVYFCGSADNSGAAFGAGTTLTVL
	binds			binds	binds	MASP-3 specific clone M3J5 (antibody, V domains shown) VH: AVTLDESGGGLQTPGGGLSLVCKASGFTFSSYAMGWMRQAPGKGLEYVAGIRSDGSFTLYATAVKGRATISRDNGQSTVRLQLNNLRAEDTATYFCTRSGNVGDIDAWGHGTEVIVSS VL: ALTQPASVSANPGETVKITCSGGYSGYAGSYYYGWYQQKAPGSAPVTLIYYNNKRPSDIPSRFSGSLSGSTNTLTITGVRADDEAVYFCGSADNSGAAFGAGTTLTVL
